Test results from the supplement of paper PMC10849652.
Some of the results follow.

Sequences of proteins named here, by UniProt entry; tags and fusion partners are left off. A change or cut given only in a name is not applied to a line headed by its entry.
UniProt Q9BQ67, whole entry, looked up: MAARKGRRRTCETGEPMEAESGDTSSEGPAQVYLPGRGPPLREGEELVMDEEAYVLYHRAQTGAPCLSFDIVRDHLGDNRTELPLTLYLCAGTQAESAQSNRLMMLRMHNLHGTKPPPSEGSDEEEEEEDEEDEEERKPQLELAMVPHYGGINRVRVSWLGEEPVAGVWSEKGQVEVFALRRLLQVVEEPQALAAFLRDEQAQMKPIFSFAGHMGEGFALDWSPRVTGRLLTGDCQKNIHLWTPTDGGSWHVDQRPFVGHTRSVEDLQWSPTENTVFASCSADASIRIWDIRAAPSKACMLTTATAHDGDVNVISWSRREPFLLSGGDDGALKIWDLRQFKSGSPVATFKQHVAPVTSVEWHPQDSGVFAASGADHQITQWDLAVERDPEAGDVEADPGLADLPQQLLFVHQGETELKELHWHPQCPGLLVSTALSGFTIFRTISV
UniProt P36915, whole entry, looked up: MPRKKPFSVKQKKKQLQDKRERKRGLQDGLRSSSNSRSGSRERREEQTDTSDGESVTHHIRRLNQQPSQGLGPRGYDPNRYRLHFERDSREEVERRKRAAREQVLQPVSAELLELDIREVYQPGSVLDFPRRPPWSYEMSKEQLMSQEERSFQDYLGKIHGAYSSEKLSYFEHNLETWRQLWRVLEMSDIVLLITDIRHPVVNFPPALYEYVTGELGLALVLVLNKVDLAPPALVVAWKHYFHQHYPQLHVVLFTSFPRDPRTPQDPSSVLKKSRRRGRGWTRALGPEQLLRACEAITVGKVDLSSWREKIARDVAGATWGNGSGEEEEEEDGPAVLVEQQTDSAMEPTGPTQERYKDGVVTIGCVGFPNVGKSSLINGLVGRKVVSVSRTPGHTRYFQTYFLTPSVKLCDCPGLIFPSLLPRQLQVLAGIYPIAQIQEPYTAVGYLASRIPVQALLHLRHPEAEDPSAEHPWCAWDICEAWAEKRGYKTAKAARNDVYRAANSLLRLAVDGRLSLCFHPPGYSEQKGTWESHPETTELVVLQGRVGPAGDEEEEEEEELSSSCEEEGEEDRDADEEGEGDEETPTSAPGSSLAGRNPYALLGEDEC
UniProt Q8NBJ4: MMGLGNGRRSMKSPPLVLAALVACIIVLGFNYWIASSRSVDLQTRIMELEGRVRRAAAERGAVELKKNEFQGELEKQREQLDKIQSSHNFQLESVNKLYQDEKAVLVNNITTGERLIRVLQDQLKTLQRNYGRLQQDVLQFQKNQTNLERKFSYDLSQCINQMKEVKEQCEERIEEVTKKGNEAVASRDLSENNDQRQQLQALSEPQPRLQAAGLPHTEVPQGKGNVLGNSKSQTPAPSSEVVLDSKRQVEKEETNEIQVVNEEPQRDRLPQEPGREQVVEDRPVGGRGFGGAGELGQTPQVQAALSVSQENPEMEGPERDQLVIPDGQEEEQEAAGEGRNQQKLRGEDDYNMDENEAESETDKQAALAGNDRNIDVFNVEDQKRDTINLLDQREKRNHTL
UniProt Q9H4A6: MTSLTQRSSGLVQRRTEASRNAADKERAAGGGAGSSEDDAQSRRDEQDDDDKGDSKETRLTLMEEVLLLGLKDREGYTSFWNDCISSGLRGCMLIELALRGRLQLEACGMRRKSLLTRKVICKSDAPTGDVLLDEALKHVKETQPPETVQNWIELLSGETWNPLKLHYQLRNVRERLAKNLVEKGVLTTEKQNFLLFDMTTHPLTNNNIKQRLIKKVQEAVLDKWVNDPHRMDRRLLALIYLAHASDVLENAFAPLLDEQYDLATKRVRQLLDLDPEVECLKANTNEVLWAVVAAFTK

Columns and labels:
Assay in all cases: log2 fold change, soluble protein after heating vs DMSO (PISA); higher = thermal stabilisation; K562 cells, 10 uM, 30 min; active = over 0.2 and 3.5 SD of the protein, either way, in both replicates (recomputed)
[1] = compound: C1=CC=C(C=C1)[C@H](COC2=CC3=C(C=C2)NC(=O)N3)NC(=O)C4=CC=CN(C4=O)CC5=CC(=C(C=C5)F)F
How it was run: (§1)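 Soluble protein was defined as the supernatant after 21,000xg for 90 min. It came from K562 cells at 2×10^6 cells/mL given 10 μM compound for 30 min, heated in aliquots for 3 min across 48°C-58°C, pooled, and extracted in PBS with 0.5% NP-40 at 4°C, and was quantified by TMTpro 16plex LC-MS/MS with equalised channel sums. Thermal stability against control samples, from duplicates, is reported as log2 fold change.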

[2] = compound: CC1=C(SC2=C1C(=N[C@H](C3=NN=C(N32)C)CC(=O)N)C4=CC=C(C=C4)Cl)C
How it was run: as §1

[3] = compound: CC1=C2C(=CC=C1)N=C(N(C2=O)C3=CC=CC=C3C)CN4C=NC5=C(N=CN=C54)N
How it was run: as §1

[4] = compound: Cc1sc2c(c1C)C(c1ccc(Cl)cc1)=N[C@@H](CC(=O)OC(C)(C)C)c1nnc(C)n1-2
How it was run: as §1

[5] = compound: c1ccc([C@@H]2C[C@H]2NC2CCNCC2)cc1
How it was run: as §1

Measured: log2 fold change

GRWD1 (UniProt Q9BQ67)
inactive: [1] 0.098 | [2] -0.285 | [3] -0.125 | [4] 0.235 | [5] 0

GNL1 (UniProt P36915)
inactive: [1] -0.042 | [2] -0.007 | [3] 0.099 | [4] -0.037 | [5] -0.038

GOLM1 (UniProt Q8NBJ4)
inactive: [1] -0.175 | [2] 0.002 | [3] 0.221 | [4] -0.215 | [5] -0.021

GOLPH3 (UniProt Q9H4A6)
inactive: [1] -0.035 | [2] 0.06 | [3] 0.04 | [4] -0.077 | [5] -0.021
